Measured values reported in patent US20250353864A1, “INDAZOLE CONTAINING MACROCYCLES AND THEIR USE” (BLOSSOMHILL THERAPEUTICS, INC., priority 2022, published 2025).
The structures given here were assigned with low confidence; some may be wrong.

Chains of the proteins cited; added tags and fusions are not shown. Lines headed by an entry give the natural chain unless they say otherwise; changes in a name come on top. A line that says so, or that is headed by a name, gives the form on record, which may keep a tag or linker. Residues count along the entry.
UniProt P00533, 25-1210 limits assumed: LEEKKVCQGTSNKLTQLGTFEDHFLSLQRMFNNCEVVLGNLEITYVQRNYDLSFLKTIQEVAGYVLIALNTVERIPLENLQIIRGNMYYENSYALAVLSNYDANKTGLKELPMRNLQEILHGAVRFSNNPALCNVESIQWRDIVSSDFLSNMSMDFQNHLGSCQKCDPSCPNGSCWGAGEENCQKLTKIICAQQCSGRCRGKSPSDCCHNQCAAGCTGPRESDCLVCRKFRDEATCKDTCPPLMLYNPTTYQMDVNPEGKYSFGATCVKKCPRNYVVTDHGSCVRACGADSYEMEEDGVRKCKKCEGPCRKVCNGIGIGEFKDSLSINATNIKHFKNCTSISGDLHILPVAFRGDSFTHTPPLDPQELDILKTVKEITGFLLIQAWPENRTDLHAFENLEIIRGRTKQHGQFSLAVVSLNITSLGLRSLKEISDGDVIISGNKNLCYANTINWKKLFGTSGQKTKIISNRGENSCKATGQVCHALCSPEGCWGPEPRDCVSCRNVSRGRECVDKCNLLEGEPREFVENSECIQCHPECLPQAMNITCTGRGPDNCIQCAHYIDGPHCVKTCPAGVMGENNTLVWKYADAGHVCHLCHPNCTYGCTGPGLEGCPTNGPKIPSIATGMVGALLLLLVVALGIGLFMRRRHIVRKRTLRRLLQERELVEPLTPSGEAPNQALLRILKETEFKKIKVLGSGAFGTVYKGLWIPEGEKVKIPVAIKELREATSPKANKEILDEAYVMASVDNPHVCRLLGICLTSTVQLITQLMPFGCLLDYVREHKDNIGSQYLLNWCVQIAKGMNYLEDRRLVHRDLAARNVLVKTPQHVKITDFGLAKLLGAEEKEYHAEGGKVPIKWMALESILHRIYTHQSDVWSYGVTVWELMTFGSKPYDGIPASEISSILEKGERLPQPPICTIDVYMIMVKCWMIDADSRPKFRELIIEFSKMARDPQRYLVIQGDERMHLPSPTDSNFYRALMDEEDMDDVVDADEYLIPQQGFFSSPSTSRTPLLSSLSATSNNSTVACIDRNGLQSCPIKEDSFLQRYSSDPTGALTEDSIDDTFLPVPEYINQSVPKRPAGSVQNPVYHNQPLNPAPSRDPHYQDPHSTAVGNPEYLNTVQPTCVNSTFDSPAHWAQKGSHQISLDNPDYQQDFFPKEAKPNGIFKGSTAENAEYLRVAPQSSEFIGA
UniProt P00533, 25-1210 L858R limits assumed: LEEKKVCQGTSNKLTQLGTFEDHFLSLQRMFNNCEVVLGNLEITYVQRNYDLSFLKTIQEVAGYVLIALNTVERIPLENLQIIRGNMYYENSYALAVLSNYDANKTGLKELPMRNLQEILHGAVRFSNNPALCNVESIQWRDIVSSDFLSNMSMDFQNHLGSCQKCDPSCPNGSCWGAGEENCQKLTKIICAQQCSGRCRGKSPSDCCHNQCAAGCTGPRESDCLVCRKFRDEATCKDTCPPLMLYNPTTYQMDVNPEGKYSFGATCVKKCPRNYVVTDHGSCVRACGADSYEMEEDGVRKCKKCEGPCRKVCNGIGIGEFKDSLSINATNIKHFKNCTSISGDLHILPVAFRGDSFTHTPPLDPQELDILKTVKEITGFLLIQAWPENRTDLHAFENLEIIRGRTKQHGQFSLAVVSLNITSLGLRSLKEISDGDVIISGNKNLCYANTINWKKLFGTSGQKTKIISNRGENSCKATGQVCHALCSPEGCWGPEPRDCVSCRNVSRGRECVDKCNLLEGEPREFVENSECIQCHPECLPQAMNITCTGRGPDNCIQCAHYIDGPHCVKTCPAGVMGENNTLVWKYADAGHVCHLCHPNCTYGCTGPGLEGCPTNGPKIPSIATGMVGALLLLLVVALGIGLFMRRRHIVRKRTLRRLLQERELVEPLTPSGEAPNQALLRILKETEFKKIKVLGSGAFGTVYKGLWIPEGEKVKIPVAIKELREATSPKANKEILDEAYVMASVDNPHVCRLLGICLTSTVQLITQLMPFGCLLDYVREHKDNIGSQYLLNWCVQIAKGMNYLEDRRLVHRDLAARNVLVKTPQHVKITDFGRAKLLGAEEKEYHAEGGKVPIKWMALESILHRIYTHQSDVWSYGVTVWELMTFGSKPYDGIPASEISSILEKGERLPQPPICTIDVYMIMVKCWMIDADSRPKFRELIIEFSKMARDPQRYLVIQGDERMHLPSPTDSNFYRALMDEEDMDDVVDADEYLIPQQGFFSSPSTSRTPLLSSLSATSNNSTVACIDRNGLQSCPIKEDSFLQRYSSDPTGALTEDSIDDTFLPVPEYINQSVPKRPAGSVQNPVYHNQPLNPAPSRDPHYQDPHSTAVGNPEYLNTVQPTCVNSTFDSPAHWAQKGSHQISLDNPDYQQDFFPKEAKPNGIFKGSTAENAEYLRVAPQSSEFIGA
UniProt P00533, 25-1210 T790M/C797S/L858R limits assumed: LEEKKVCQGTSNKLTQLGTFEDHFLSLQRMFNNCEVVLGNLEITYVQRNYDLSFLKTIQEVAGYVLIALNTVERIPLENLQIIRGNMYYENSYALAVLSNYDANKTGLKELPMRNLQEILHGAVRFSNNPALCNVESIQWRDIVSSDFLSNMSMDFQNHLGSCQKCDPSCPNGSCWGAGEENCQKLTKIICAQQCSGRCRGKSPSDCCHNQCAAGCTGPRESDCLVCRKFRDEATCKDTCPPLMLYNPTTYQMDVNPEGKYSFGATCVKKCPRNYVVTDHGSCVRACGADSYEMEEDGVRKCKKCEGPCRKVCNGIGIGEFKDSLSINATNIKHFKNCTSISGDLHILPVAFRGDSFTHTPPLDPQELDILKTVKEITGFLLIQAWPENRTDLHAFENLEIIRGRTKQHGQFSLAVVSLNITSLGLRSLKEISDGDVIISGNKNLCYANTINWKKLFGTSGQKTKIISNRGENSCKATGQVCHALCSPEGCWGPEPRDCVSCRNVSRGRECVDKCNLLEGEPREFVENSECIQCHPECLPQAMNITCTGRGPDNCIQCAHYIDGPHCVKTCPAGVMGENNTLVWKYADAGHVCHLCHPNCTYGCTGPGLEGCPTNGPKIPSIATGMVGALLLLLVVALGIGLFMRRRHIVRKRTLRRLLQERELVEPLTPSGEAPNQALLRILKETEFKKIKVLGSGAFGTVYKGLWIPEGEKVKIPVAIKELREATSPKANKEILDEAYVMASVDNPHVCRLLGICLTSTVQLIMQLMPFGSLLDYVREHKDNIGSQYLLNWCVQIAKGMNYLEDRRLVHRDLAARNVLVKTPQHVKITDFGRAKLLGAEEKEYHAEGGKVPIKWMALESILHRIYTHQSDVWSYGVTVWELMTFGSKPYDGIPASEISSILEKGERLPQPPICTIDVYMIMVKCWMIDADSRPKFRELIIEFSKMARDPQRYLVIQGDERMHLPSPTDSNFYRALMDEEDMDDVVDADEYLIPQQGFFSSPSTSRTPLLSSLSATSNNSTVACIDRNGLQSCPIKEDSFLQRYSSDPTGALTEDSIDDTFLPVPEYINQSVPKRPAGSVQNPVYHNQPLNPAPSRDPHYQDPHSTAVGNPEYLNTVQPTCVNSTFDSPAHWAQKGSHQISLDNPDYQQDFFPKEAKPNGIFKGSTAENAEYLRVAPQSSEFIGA
UniProt P00533, with tags, fused parts or gaps INS770NPG limits assumed: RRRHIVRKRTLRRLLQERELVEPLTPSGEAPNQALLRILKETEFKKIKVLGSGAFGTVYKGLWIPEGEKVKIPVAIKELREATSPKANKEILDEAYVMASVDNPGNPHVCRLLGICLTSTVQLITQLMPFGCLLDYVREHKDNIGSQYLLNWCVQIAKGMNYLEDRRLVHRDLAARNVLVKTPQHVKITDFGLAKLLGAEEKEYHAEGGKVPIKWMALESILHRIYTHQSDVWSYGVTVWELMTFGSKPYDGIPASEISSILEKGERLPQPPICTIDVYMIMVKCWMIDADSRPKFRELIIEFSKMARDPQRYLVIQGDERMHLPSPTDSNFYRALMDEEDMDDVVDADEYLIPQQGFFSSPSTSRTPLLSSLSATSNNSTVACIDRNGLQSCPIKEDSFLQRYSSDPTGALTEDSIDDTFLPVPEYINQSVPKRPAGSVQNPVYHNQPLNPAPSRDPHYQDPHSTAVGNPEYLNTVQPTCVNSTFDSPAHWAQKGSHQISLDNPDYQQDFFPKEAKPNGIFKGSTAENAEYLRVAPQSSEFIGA
UniProt P00533, with tags, fused parts or gaps DEL746-750 limits assumed: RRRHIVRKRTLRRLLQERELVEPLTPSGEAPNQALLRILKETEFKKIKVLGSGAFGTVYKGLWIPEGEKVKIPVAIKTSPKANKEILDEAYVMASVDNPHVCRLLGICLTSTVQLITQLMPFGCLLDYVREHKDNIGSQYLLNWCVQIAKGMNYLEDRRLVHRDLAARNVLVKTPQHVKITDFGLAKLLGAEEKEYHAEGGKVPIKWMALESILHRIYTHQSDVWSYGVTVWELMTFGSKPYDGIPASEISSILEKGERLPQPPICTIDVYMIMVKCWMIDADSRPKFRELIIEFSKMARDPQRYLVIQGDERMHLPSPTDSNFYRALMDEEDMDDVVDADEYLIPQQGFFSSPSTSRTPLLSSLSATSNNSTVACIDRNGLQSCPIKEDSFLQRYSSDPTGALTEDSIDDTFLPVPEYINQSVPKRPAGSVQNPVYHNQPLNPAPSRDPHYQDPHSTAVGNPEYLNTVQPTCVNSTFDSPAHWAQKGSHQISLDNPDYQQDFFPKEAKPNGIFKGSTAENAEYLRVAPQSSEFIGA

Key:
[1] = target: EGFR (D770_N771insNPG) (Homo sapiens (Human), UniProt P00533, INS770NPG); assay: HotSpot radiometric kinase assay, EGFR (D770_N771insNPG); conditions: read-out: EGFR (Δ770_N771insNPG) IC50, 10 μM ATP
Protocol: (§1) Biochemical Assays for Inhibition of Wild-Type and Mutant EGFRs
(§2) Briefly, specific kinase/substrate pairs along with required cofactors were prepared in reaction buffer; 20 mM Hepes pH 7.5, 10 mM […], 1 mM EGTA, 0.02% Brij35, 0.02 mg/ml BSA, 0.1 mM Na3VO4, 2 mM DTT, 1% DMSO. Compounds were delivered into the reaction, followed […] later by addition of a mixture of ATP (Sigma, St. Louis MO) and ^33P ATP (Perkin Elmer, Waltham MA) to a final concentration of 10 μM. Reactions were carried out at room temperature for 120 min, followed by spotting of the reactions onto P81 ion exchange filter paper (Whatman Inc., Piscataway, NJ). Unbound phosphate was removed by extensive washing of filters in 0.75% phosphoric acid. […] IC50 values and curve fits were obtained using Prism (GraphPad Software).

[2] = target: EGFR L858R/T790M/C797S mutant (Homo sapiens (Human), UniProt P00533, C797S/L858R/T790M); assay: HotSpot radiometric kinase assay, EGFR L858R/T790M/C797S mutant; conditions: read-out: EGFR (L858R/T790M/C797S) IC50, 10 μM ATP
Protocol: as §1, §2

[3] = target: EGFR Δ746-750 mutant (Homo sapiens (Human), UniProt P00533, DEL746-750); assay: HotSpot radiometric kinase assay, EGFR Δ746-750 mutant; conditions: read-out: EGFR (Δ746-750) IC50, 10 μM ATP
Protocol: as §1, §2

[4] = target: EGFR WT (Homo sapiens (Human), UniProt P00533); assay: HotSpot radiometric kinase assay (Reaction Biology), EGFR WT; conditions: read-out: EGFR wt IC50, 10 μM ATP
Protocol: as §1, §2

[5] = target: EGFR L858R mutant (Homo sapiens (Human), UniProt P00533, L858R); assay: HotSpot radiometric kinase assay, EGFR L858R mutant; conditions: read-out: EGFR (L858R) IC50, 10 μM ATP
Protocol: as §1, §2

Measured: IC50

CC(C)NC(=O)c1cnc2c(c1)/C=C/c1n[nH]c3ccc(cc13)-c1cnn(C)c1COCCO2
> 1 µM: all assays above
